Results taken from PMC6921068.
No constants are given. Whether binding was seen depends on the method and setting.

Biological target: GST-fusion protein containing the NHE-1 C-terminal peptide (83 aa)
Assay: far-Western, overlay or dot blot; GST-NHE-1 CP separated on 12% polyacrylamide gel and blotted onto nitrocellulose; blocked with 5% milk in PBS; incubated with 45 µg of rat colon tissue lysates for 4 h; detected with CA-selective antibodies; only the target purified

binding: no binding
B1: carbonic anhydrase I (enzyme, UniProt B0BNN3 1-261)
chain: MASADWGYDSKNGPDQWSKLYPIANGNNQSPIDIKTSEAKHDSSLKPVSVSYNPATAKEIVNVGHSFHVVFDDSSNQSVLKGGPLADSYRLTQFHFHWGNSNDHGSEHTVDGAKYSGELHLVHWNSAKYSSAAEAISKADGLAIIGVLMKVGPANPNLQKVLDALSSVKTKGKRAPFTNFDPSSLLPSSLDYWTYFGSLTHPPLHESVTWVICKESISLSPEQLAQLRGLLSSAEGEPAVPVLSNHRPPQPLKGRTVRASF
